No constants are given. Whether binding was seen depends on the method and setting. Some results given as binding are weak or reduced against the parent protein; the word gives no strength. For some of these results: Where a sequence is shown, tags or fusion partners need not be part of it.
Tests used:
CD6 on Jurkat cells [1] = biological target: T1, CD6 on Jurkat cells (human, UniProt P30203 18-668); assay: flow cytometry on Jurkat cells, Fab culture supernatant; controls: TG1 supernatant and PBS
T1 construct: whole, on cells; the target is inferred from the antibodies' specificity
T1 sequence (looked up): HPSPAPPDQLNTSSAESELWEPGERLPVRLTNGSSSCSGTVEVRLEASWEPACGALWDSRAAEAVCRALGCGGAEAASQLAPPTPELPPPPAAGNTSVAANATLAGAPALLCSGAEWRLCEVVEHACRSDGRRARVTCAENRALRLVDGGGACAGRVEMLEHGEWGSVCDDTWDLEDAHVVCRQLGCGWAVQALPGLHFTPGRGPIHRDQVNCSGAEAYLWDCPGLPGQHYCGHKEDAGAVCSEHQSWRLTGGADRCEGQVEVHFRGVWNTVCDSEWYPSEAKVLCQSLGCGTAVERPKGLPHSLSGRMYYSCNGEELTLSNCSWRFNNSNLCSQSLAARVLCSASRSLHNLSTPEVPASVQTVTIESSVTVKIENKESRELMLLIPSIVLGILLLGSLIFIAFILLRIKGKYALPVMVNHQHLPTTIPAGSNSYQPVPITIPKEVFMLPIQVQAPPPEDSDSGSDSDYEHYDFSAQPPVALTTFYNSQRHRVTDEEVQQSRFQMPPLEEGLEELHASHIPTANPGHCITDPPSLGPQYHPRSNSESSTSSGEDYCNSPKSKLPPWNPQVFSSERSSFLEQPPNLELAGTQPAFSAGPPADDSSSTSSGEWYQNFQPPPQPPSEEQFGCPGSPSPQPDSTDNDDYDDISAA

CD6 on Jurkat cells [2] = biological target: T1, CD6 on Jurkat cells; assay: flow cytometry on Jurkat cells, Fab culture supernatant
rhCD6-Fc [3] = biological target: T2, rhCD6-Fc (human, UniProt P30203 25-398, limits assumed); assay: SPR off-rate ranking (BIAcore T200): Fab-SASA from culture medium captured on immobilised BSA, rhCD6-Fc injected, dissociation phase, response normalised
T2 construct: also called rhCD6-Fc chimera; antigen rhCD6-Fc; not shown: Fc part
T2 sequence (looked up): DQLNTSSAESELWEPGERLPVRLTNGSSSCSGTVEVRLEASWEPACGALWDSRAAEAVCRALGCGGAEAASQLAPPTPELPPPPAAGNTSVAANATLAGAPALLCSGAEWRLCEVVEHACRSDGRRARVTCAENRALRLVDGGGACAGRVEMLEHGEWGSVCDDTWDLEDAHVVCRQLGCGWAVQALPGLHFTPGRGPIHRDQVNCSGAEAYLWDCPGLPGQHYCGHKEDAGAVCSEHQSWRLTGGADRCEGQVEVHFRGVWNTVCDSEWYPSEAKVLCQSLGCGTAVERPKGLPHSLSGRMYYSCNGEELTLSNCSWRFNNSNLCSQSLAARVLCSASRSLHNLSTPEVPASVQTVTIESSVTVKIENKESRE

rhCD6-Fc [4] = biological target: T2, rhCD6-Fc; assay: SPR single cycle kinetics, secreted Fab captured, rhCD6-Fc injected
rhCD6-Fc [5] = biological target: T2, rhCD6-Fc; assay: SPR single cycle kinetics, secreted Fab-SASA captured, rhCD6-Fc injected
rhCD6-Fc [6] = biological target: T2, rhCD6-Fc; assay: SPR single cycle kinetics (BIAcore T200): Fab-SASA captured on immobilised BSA, rhCD6-Fc at 1, 3, 9, 27 and 81 nM, 3000 s dissociation, 1:1 fit
CD6 on Jurkat cells [7] = biological target: T1, CD6 on Jurkat cells; assay: flow cytometry on Jurkat cells, Fab culture supernatant; controls: TG1 supernatant and PBS; FL2 height
rhCD6-Fc [8] = biological target: T2, rhCD6-Fc; assay: SPR (BIAcore T200): rhCD6-Fc immobilised on CM5, IgG injected at 0.11-27 nM, 700 s association, 3600 s dissociation, 1:1 fit
rhCD6-Fc [9] = biological target: T2, rhCD6-Fc; assay: conclusion of Example 2 (SPR on rhCD6-Fc)
rhCD6-Fc [10] = biological target: T2, rhCD6-Fc; assay: SPR (BIAcore T200), rhCD6-Fc immobilised, IgG injected
CD6 on Jurkat cells [11] = biological target: T1, CD6 on Jurkat cells; assay: flow cytometry on Jurkat cells, purified IgG

Measured: binding

B1: Fab2 (Fab, V domains shown)
VH: QVQLQESGPGLVKPSETLSLTCTVSGFSLSRYSVHWVRQPPGKGLEWLGLIWGGGFTDYNSALKSRLTISKDNSKNQVSLKLSSVTAADTAVYYCAREGVAYWGQGTLVTVSS
VL: DVVMTQSPLSLPVTLGQPASISCKSSQSLLNSDGRTYLNWFQQRPGQSPRRLIYLVSKLDSGVPDRFSGSGSGTDFTLKISRVEAEDVGVYYCWQGTHFPFTFGPGTKVDIK
notes: Tested as Fab-SASA secreted into culture medium (pFASEBA vector); also called back-mutation 2; Fab2 clone from CDR grafting
not listed: rhCD6-Fc [8] | rhCD6-Fc [9] | rhCD6-Fc [10] | CD6 on Jurkat cells [11]
binds: all other assays above

B2: Fab4 (Fab, V domains shown)
VH: QVQLQESGPGLVKPSETLSLTCTVSGFSISRYSVHWIRQPPGKGLEWIGLIWGGGFTDYNSALKSRVTISKDNSKNQVSLKLSSVTAADTAVYYCAREGVAYWGQGTLVTVSS
VL: DVVMTQSPLSLPVTLGQPASISCKSSQSLLNSDGRTYLNWFQQRPGQSPRRLIYLVSKLDSGVPDRFSGSGSGTDFTLKISRVEAEDVGVYYCWQGTHFPFTFGPGTKVDIK
notes: Tested as Fab-SASA secreted into culture medium; also called back-mutation 4
binds: CD6 on Jurkat cells [1] | CD6 on Jurkat cells [2]

B3: Fab5 (Fab, V domains shown)
VH: QVQLQESGPGLVKPSETLSLTCTVSGGSLSRYSVHWVRQPPGKGLEWLGLIWGGGFTDYNSALKSRLTISVDTSKNQFSLKLSSVTAADTAVYYCAREGVAYWGQGTLVTVSS
VL: DVVMTQSPLSLPVTLGQPASISCKSSQSLLNSDGRTYLNWFQQRPGQSPRRLIYLVSKLDSGVPDRFSGSGSGTDFTLKISRVEAEDVGVYYCWQGTHFPFTFGPGTKVDIK
notes: Tested as Fab-SASA secreted into culture medium; also called Fab5 R; back-mutation 5
binds: CD6 on Jurkat cells [1] | CD6 on Jurkat cells [2]

B4: Fab7 (Fab, V domains shown)
VH: QVQLQESGPGLVKPSETLSLTCTVSGGSISRYSVHWVRQPPGKGLEWLGLIWGGGFTDYNSALKSRLTISVDTSKNQFSLKLSSVTAADTAVYYCAREGVAYWGQGTLVTVSS
VL: DVVMTQSPLSLPVTLGQPASISCKSSQSLLNSDGRTYLNWFQQRPGQSPRRLIYLVSKLDSGVPDRFSGSGSGTDFTLKISRVEAEDVGVYYCWQGTHFPFTFGPGTKVDIK
notes: Tested as Fab-SASA secreted into culture medium; also called back-mutation 7
binds: CD6 on Jurkat cells [1] | CD6 on Jurkat cells [2]

B5: Humanized IgG6 (from Fab6) (antibody, V domains shown)
VH: QVQLQESGPGLVKPSETLSLTCTVSGFSLSRYSVHWIRQPPGKGLEWIGLIWGGGFTDYNSALKSRVTISKDNSKNQVSLKLSSVTAADTAVYYCAREGVAYWGQGTLVTVSS
VL: DVVMTQSPLSLPVTLGQPASISCKSSQSLLNSDGRTYLNWFQQRPGQSPRRLIYLVSKLDSGVPDRFSGSGSGTDFTLKISRVEAEDVGVYYCWQGTHFPFTFGPGTKVDIKR
notes: Human IgG1 / kappa
binds: rhCD6-Fc [8] | rhCD6-Fc [9] | rhCD6-Fc [10] | CD6 on Jurkat cells [11]

B6: Humanized IgG2 (from Fab2) (antibody, V domains shown)
VH: QVQLQESGPGLVKPSETLSLTCTVSGFSLSRYSVHWVRQPPGKGLEWLGLIWGGGFTDYNSALKSRLTISKDNSKNQVSLKLSSVTAADTAVYYCAREGVAYWGQGTLVTVSS
VL: DVVMTQSPLSLPVTLGQPASISCKSSQSLLNSDGRTYLNWFQQRPGQSPRRLIYLVSKLDSGVPDRFSGSGSGTDFTLKISRVEAEDVGVYYCWQGTHFPFTFGPGTKVDIKR
notes: VH2-hIgG1CH and VL-hIgKCL (human IgG1 / kappa)
binds: rhCD6-Fc [8] | rhCD6-Fc [9] | rhCD6-Fc [10] | CD6 on Jurkat cells [11]

B7: Humanized IgG4 (from Fab4) (antibody, V domains shown)
VH: QVQLQESGPGLVKPSETLSLTCTVSGFSISRYSVHWIRQPPGKGLEWIGLIWGGGFTDYNSALKSRVTISKDNSKNQVSLKLSSVTAADTAVYYCAREGVAYWGQGTLVTVSS
VL: DVVMTQSPLSLPVTLGQPASISCKSSQSLLNSDGRTYLNWFQQRPGQSPRRLIYLVSKLDSGVPDRFSGSGSGTDFTLKISRVEAEDVGVYYCWQGTHFPFTFGPGTKVDIKR
notes: VH4-hIgG1CH and VL-hIgKCL (human IgG1 / kappa; 'IgG4' is the clone number, not the isotype)
binds: rhCD6-Fc [8] | rhCD6-Fc [9] | rhCD6-Fc [10] | CD6 on Jurkat cells [11]
